The list shows a part of the results. These are further read-outs of the screen, such as a control signal, another cell line or another target. No call is given for them. Compounds called inactive in the main read-out are mostly missing here. Words in brackets tell the shape of the fitted curve; partial curves, single points and poor fits give uncertain potencies.
Assay: IkB Signaling
Details: ABC-DLBCL IkBa-CBG/CBR dual luciferase ratio (green luciferase fused to IkBa over red control in OCI-Ly3 lymphoma cells), 4 h
In short: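 Curves were fitted separately to fusion (green), unfused (red) and ratio luminescence, then classed by r2, magnitude and activity. Cells: OCI-Ly3, 4 h compound plus doxycycline at 37C; 10 uM MG-132 defined full response.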

[1] = measured here: control luc red channel unless noted
[2] = measured here: IkB-luc green channel
[3] = measured here: control luc red channel

Q: With `COc1ccc(-c2nnc(SCC(=O)Nc3ccc(F)cc3)s2)cc1` as the compound, how does the AC50 [1] read?
A: Its AC50 is 6.31 µM [falling, single point].

Q: Which AC50 [2] does the source give for `Cc1cc(N2CCN(C(c3ccccc3)c3ccc(Cl)cc3)CC2)n2ncnc2n1` (centres undefined) here?
A: The AC50 was 39.8 µM [falling, single point].

Q: What about the AC50 [3] of the same compound?
A: The AC50 was 25.1 µM [falling, partial curve].

Q: For `CC(=O)c1ccc(NC(=O)NCCc2c[nH]c3ccccc23)cc1`, which AC50 [1] is on record?
A: The AC50 was 20 µM [falling, single point].

Q: Which AC50 [1] does the source give for `CC(=O)N(c1cccc(C)c1)C1SC(=O)N(c2ccccc2)C1=O` (centres undefined) here?
A: Its AC50 is 15.8 µM [falling, partial curve].

Q: With `Cc1cccc(-c2nc3scc(CCNC(=O)c4ccccc4Cl)n3n2)c1` as the compound, how does the AC50 [1] read?
A: Its AC50 is 31.6 µM [falling, partial curve].

Q: Which AC50 [1] does the source give for `CC(C)c1nn2c(=O)cc(COC(=O)c3ccc(NC(=O)CCc4ccccc4)cc3)nc2s1` here?
A: Its AC50 is 5.01 µM [falling, partial curve].

Q: Which results are given for `CCOC(=O)Cn1c(=O)oc2cc(S(=O)(=O)Nc3c(C)cc(C)cc3C)ccc21`?
A: AC50 [2]: 31.6 µM [falling, partial curve]; AC50 [3]: 6.31 µM [falling, partial curve]

Q: Which AC50 [1] does the source give for `CC1CCN(CCNC(=O)c2ccc(Cn3c(SCc4ccccc4)nc4cccnc43)cc2)CC1` here?
A: Its AC50 is 20 µM [falling, partial curve, poor fit].

Q: For `COc1ccccc1CNC(=O)c1cccc(Nc2nc3ccccc3n3nnnc23)c1`, which AC50 [1] is on record?
A: The AC50 was 39.8 µM [falling, single point].

Q: Which AC50 [1] does the source give for `Cc1ccc2nc(N3CCN(c4cccc(C)c4C)CC3)c3nnnn3c2c1` here?
A: The AC50 was 31.6 µM [falling, partial curve].

Q: Which AC50 [1] does the source give for `CCC1CN(C(=O)N2CCC(C(=O)NCc3cccs3)CC2)c2cc(C)ccc2O1` (centres undefined) here?
A: The AC50 was 25.1 µM [falling, partial curve].

Q: For `O=C(CC1(O)C(=O)N(CCc2ccccc2)c2ccc(Br)cc21)c1ccccc1O` (centres undefined), which AC50 [1] is on record?
A: Its AC50 is 31.6 µM [falling, single point].

Q: With `CCOc1ccc(-c2cc(C(=O)NCc3ccccc3)c3c(-c4ccc(CC)cc4)[nH]nc3n2)cc1` as the compound, how does the AC50 [1] read?
A: Its AC50 is 20 µM [rising, partial curve].

Q: With `CCCn1c2ccccc2c2cc(C(=O)O)ccc21` as the compound, how does the AC50 [1] read?
A: Its AC50 is 12.6 µM [falling, partial curve].

Q: Which AC50 [1] does the source give for `CC(C)(C)C(=O)Nc1c(C(=O)N2CCN(c3ccc(F)cc3)CC2)oc2ccccc12` here?
A: The AC50 was 12.6 µM [falling, partial curve].

Q: For `CCn1c(CN2CCOCC2)nc2cc(NC(=O)c3cc(OC)c(OC)c(OC)c3)ccc21`, which AC50 [1] is on record?
A: Its AC50 is 31.6 µM [falling, partial curve].

Q: With `CSc1nn(Cc2ccc(Br)cc2)c(N(C(C)=O)C(C)=O)c1S(=O)(=O)c1ccccc1` as the compound, how does the AC50 [1] read?
A: The AC50 was 20 µM [falling, partial curve].

Q: For `O=c1c2ccccc2nc(-c2cccc(Cl)c2)n1O`, which AC50 [1] is on record?
A: The AC50 was 12.6 µM [falling, partial curve].

Q: Which AC50 [1] does the source give for `COc1ccc(-c2cc(C(=O)NCc3ccccc3)c3c(-c4ccccc4)[nH]nc3n2)cc1` here?
A: Its AC50 is 0.794 µM [falling, full curve].

Q: With `CC1CCN(C(=O)Cn2ncc3c4ccccc4n(Cc4ccc(Cl)cc4)c3c2=O)CC1` as the compound, how does the AC50 [1] read?
A: Its AC50 is 7.94 µM [falling, partial curve].

Q: What does the source list for `CCC(c1nnnn1Cc1ccco1)N(CCc1ccccc1)Cc1cc2ccc(OC)cc2[nH]c1=O` (centres undefined)?
A: AC50 [2]: 7.94 µM [falling, partial curve]; AC50 [3]: 10 µM [falling, partial curve]

Q: For `CCOc1ccc(NC(=O)c2ccc(F)c(S(=O)(=O)NCc3ccc4c(c3)OCO4)c2)cc1`, which AC50 [1] is on record?
A: The AC50 was 25.1 µM [falling, single point].

Q: With `Cc1oc2ncn(CC(C)C)c(=O)c2c1C(=O)NCCCN(Cc1ccccc1)C(C)C` as the compound, how does the AC50 [1] read?
A: The AC50 was 6.31 µM [rising, partial curve].

Q: With `CCOc1ccc(NC(=O)CSc2nnc(-c3ccc(C)cc3)c(-c3ccc(C)cc3)n2)cc1` as the compound, how does the AC50 [1] read?
A: Its AC50 is 10 µM [falling, partial curve].

Q: Which AC50 [1] does the source give for `O=C(Cn1c(=O)nc(-c2ccccc2)c2ccccc21)NCCCc1ccccc1` here?
A: The AC50 was 15.8 µM [falling, single point].

Q: For `COc1ccc(CCNC(=O)CS(=O)Cc2nc(-c3ccc(C)cc3)oc2C)c(OC)c1` (centres undefined), which AC50 [1] is on record?
A: The AC50 was 39.8 µM [falling, single point].

Q: Which AC50 [1] does the source give for `O=C(CSc1nnc(SCc2ccc(Cl)cc2)s1)N1CCOCC1` here?
A: The AC50 was 25.1 µM [falling, partial curve].

Q: With `COc1ccc(-n2c(COc3ccccc3)nnc2SCc2ccc(C#N)cc2)cc1` as the compound, how does the AC50 [1] read?
A: The AC50 was 15.8 µM [falling, partial curve].

Q: Which AC50 [1] does the source give for `Cc1ccccc1N1CCN(S(=O)(=O)c2nnc(NC(=O)c3ccc(Cl)cc3)s2)CC1` here?
A: Its AC50 is 12.6 µM [falling, partial curve].

Q: With `CCSc1ncc(Cl)c(C(=O)N2CCN(c3ccc(OC)cc3)CC2)n1` as the compound, how does the AC50 [1] read?
A: The AC50 was 20 µM [falling, partial curve].

Q: For `C=Cc1ccc(Cn2c(=O)n(-c3cccc(C)c3)c(=O)c3c2c2cc(C)ccc2n3C)cc1`, which AC50 [1] is on record?
A: Its AC50 is 31.6 µM [falling, single point].

Q: With `CCN(CC)CCCNC(=O)c1ccc2nc(CCc3ccccc3)oc2c1` as the compound, how does the AC50 [1] read?
A: The AC50 was 0.00501 µM [falling, full curve, poor fit].

Q: For `Cc1ccc(S(=O)(=O)c2c(C)nn(-c3ccccc3)c2OC(=O)c2ccccc2F)cc1`, which AC50 [1] is on record?
A: The AC50 was 1.26 µM [falling, full curve, poor fit].

Q: For `CCN(CC)c1ccc(NC(=O)C2COc3ccc(OC)cc3C2)c(C)c1` (centres undefined), which AC50 [1] is on record?
A: The AC50 was 15.8 µM [rising, partial curve].

Q: For `COc1ccccc1-c1cc(C(=O)Nc2cc(Cl)ccc2O)no1`, which AC50 [1] is on record?
A: The AC50 was 0.0126 µM [falling, full curve].

Q: Which AC50 [1] does the source give for `O=C(Nc1ccc(F)cc1F)c1ccc2c(=O)n3c(nc2c1)CCCCC3` here?
A: Its AC50 is 12.6 µM [falling, partial curve].

Q: For `Cc1c(C(=O)N(C)c2cccc(C(F)(F)F)c2)sc2nc3n(c(=O)c12)CCCCC3`, which AC50 [1] is on record?
A: Its AC50 is 12.6 µM [falling, partial curve].

Q: For `CCOc1ccc(CNC(=O)c2cnc3sc(N4CCC(C)CC4)nn3c2=O)cc1OC`, which AC50 [1] is on record?
A: The AC50 was 5.01 µM [rising, partial curve, poor fit].

Q: With `COc1cccc(-n2c(=O)c3sc4ccccc4c3n(CC(=O)Nc3cccc(Cl)c3)c2=O)c1` as the compound, how does the AC50 [1] read?
A: Its AC50 is 1.58 µM [falling, partial curve].

Q: For `Fc1ccc(CNc2nc3ccc(Cl)cc3n3nnnc23)cc1`, which AC50 [1] is on record?
A: Its AC50 is 2 µM [falling, full curve].

Q: For `O=S(=O)(Nc1cccc(-c2ccc(N3CCCCC3)nn2)c1)c1ccc(Cl)s1`, which AC50 [1] is on record?
A: Its AC50 is 20 µM [falling, single point].

Q: For `O=C(Nc1cccc(C(F)(F)F)c1)Nc1nnc(N2CCCCCC2)s1`, which AC50 [1] is on record?
A: Its AC50 is 12.6 µM [falling, partial curve].

Q: Which AC50 [1] does the source give for `COc1ccccc1N1CCN(C(=O)c2cc(-c3ccc(C)c(F)c3)on2)CC1` here?
A: The AC50 was 12.6 µM [falling, partial curve].

Q: For `COc1cccc(-c2nc(CS(=O)(=O)CC(=O)N3CCN(c4ccccn4)CC3)c(C)o2)c1`, which AC50 [1] is on record?
A: The AC50 was 31.6 µM [falling, partial curve].

Q: For `COc1cccc2cc(C(=O)Nc3ccc(CC(=O)O)cc3)c(=O)oc12`, which AC50 [1] is on record?
A: The AC50 was 1 µM [falling, partial curve].

Q: Which AC50 [1] does the source give for `CCCCN1CC(c2nc3ccccc3n2CCCCOc2cc(C)cc(C)c2)CC1=O` (centres undefined) here?
A: The AC50 was 12.6 µM [falling, partial curve].

Q: For `CCOc1ccc(S(=O)(=O)N2Cc3ccccc3CC2C(=O)Nc2ccc(NC(C)=O)cc2)cc1` (centres undefined), which AC50 [1] is on record?
A: Its AC50 is 20 µM [falling, partial curve].

Q: Which AC50 [1] does the source give for `CCN(C(=O)CCc1nc(-c2ccc(C)cc2)no1)c1cccc(C(F)(F)F)c1` here?
A: The AC50 was 31.6 µM [falling, single point].

Q: Which AC50 [2] does the source give for `c1coc(-c2nc(-c3ccco3)c(-c3ccco3)nc2-c2ccco2)c1` here?
A: Its AC50 is 39.8 µM [rising, single point].

Q: What about the AC50 [3] of the same compound?
A: The AC50 was 39.8 µM [falling, single point].

Q: Which AC50 [1] does the source give for `COc1ccc(C(=O)Nc2ccc(S(=O)(=O)Nc3cc(C)nc(C)n3)cc2)cc1` here?
A: The AC50 was 15.8 µM [falling, single point].

Q: Which AC50 [1] does the source give for `COc1cc(CNc2ccc3[nH]c(=O)[nH]c3c2)ccc1OCc1ccc(F)cc1Cl` here?
A: The AC50 was 0.158 µM [falling, full curve].

Q: Which AC50 [1] does the source give for `COC(=O)c1ccc2c(=O)n3nc(Nc4ccc(F)cc4F)sc3nc2c1` here?
A: The AC50 was 0.1 µM [falling, full curve].

Q: For `COc1ccc(CN2CCc3c(c(=O)n4ncc(C(=O)N5CCN(c6ccccc6F)CC5)c4n3C)C2)cc1`, which AC50 [1] is on record?
A: The AC50 was 39.8 µM [falling, partial curve].

Q: Which AC50 [1] does the source give for `CS(=O)(=O)N(Cc1ccccc1)c1ccc(C(=O)Nc2cccc(Cl)c2)cc1` here?
A: The AC50 was 15.8 µM [falling, partial curve].

Q: Which AC50 [1] does the source give for `Cc1cccc(N2CCN(C(=O)c3nn(C)c4c3CS(=O)(=O)c3ccccc3-4)CC2)c1C` here?
A: Its AC50 is 12.6 µM [falling, partial curve].

Q: Which AC50 [1] does the source give for `COc1ccc(Cn2ccc3nc(C)c(C(=O)N4CCN(c5cccc(OC)c5)CC4)cc3c2=O)cc1` here?
A: Its AC50 is 39.8 µM [falling, single point].

Q: Which AC50 [1] does the source give for `COc1ccc(NC(=O)c2c(NC(=O)C(F)(F)F)sc3c2CCCCC3)cc1` here?
A: Its AC50 is 0.631 µM [falling, full curve].

Q: With `COc1ccc(Cl)cc1NC(=O)c1cc(-c2ccc3c(c2)OCO3)on1` as the compound, how does the AC50 [1] read?
A: Its AC50 is 0.126 µM [rising, full curve].

Q: Which AC50 [1] does the source give for `Cc1ncc(CO)c2c1Oc1nc(-c3ccc(Cl)cc3)nc(SCC(=O)N3CCCCC3)c1C2` here?
A: Its AC50 is 20 µM [falling, single point].

Q: With `Cc1cccc(CSc2nc3c(sc4ccccc43)c(=O)n2CCC(=O)NC(C)C)c1` as the compound, how does the AC50 [1] read?
A: Its AC50 is 39.8 µM [rising, single point].

— PubChem BioAssay AID445 (National Center for Advancing Translational Sciences (NCATS), 2006)
